Measured values reported in patent publication US8828928B2 (President and Fellows of Harvard College, priority 2011, dated 2014).
Non-standard residues stand in square brackets, D forms with d.

Test: general procedure: Fmoc solid-phase peptide synthesis; Rink Amide AM resin (200 mg, loading 0.4-0.8 mmol/g); scaled up: Rink Amide AM resin (5 g); HCTU/DIPEA
Settings: whole synthesis, scale of the general procedured up 5 g resin

Row | Substance | final HPLC purity (280 nm, scale of the general procedure 200 mg resin) | final HPLC purity (A280, scale of the general procedure 200 mg resin) [%]
1 | H-KKKW[dL]W[dL]W[dL]W-NH2 (SMILES CC(C)C[C@@H](NC(=O)[C@H](Cc1c[nH]c2ccccc12)NC(=O)[C@@H](CC(C)C)NC(=O)[C@H](Cc1c[nH]c2ccccc12)NC(=O)[C@@H](CC(C)C)NC(=O)[C@H](Cc1c[nH]c2ccccc12)NC(=O)[C@H](CCCCN)NC(=O)[C@H](CCCCN)NC(=O)[C@@H](N)CCCCN)C(=O)N[C@@H](Cc1c[nH]c2ccccc12)C(N)=O) | exceeds 95% | –
2 | Ac-K(Ac)K(Ac)K(Ac)W[dL]W[dL]W[dL]W-NH2 (SMILES CC(=O)NCCCC[C@H](NC(C)=O)C(=O)N[C@@H](CCCCNC(C)=O)C(=O)N[C@@H](CCCCNC(C)=O)C(=O)N[C@@H](Cc1c[nH]c2ccccc12)C(=O)N[C@H](CC(C)C)C(=O)N[C@@H](Cc1c[nH]c2ccccc12)C(=O)N[C@H](CC(C)C)C(=O)N[C@@H](Cc1c[nH]c2ccccc12)C(=O)N[C@H](CC(C)C)C(=O)N[C@@H](Cc1c[nH]c2ccccc12)C(N)=O) | – | >95
